The list shows a part of the results. Most values come without repeats; read them as rough.

For this test, the system named is Saccharomyces cerevisiae BY4743. Kind of test: growth (OD600) with compound + IPBC relative to untreated control; higher = less growth inhibition. Conditions: compound concentration: 133 uM; IPBC concentration: 0.5 ug/ml; 20 h. How it is done:
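NMCCC compounds (133 uM) combined with IPBC (0.5 ug/ml) against Saccharomyces cerevisiae BY4743 in YPD, 96-well plates. Growth was read as OD600 at 20 h and expressed as % of the untreated control. Single pass.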
As for `CCOC(=O)C(Sc1nnc2ccccn12)c1ccccc1` (centres undefined) + CCCCNC(=O)OCC#CI [3-iodo-2-propynyl butylcarbamate (IPBC)], the growth is 101%.
On to `Cn1nc(C(C)(C)C)cc1NC(=O)COc1ccc(Oc2ccccn2)cc1` + CCCCNC(=O)OCC#CI [3-iodo-2-propynyl butylcarbamate (IPBC)], for which the growth is 109%.
For `Cc1ccc(-c2cnoc2NC(=O)CSC(C)C)cc1` + CCCCNC(=O)OCC#CI [3-iodo-2-propynyl butylcarbamate (IPBC)], the growth is 96.3%.
Consider `COC(=O)C(C)(C)NC(=O)CCN1\C=N/C2=C(C1=O)C(=CS2)C3=CC=C(C)C=C3` + CCCCNC(=O)OCC#CI [3-iodo-2-propynyl butylcarbamate (IPBC)], for which the growth stood at 103%.
As to `CCOC(=O)c1[nH]c(C)c(C(=O)N2CCC(CC(=O)NC(C)CC)CC2)c1C` (centres undefined) + CCCCNC(=O)OCC#CI [3-iodo-2-propynyl butylcarbamate (IPBC)], the growth is 80.9%.
Turning to `CC(C)n1nnnc1SCc1nc(-c2ccccc2Cl)no1` + CCCCNC(=O)OCC#CI [3-iodo-2-propynyl butylcarbamate (IPBC)], the growth worked out at 89.8%.
The result for `COc1cccc(N2CC(C(=O)NCc3ccccc3S(=O)(=O)N(C)C)CC2=O)c1` (centres undefined) + CCCCNC(=O)OCC#CI [3-iodo-2-propynyl butylcarbamate (IPBC)] reads 103%.
With `Cc1nc(SCC(=O)NC(C)CCc2ccccc2)c2ccccc2n1` (centres undefined) + CCCCNC(=O)OCC#CI [3-iodo-2-propynyl butylcarbamate (IPBC)], the growth was 84.3%.
Regarding `Cc1ccc(-n2cnnn2)cc1NCC(=O)NC1CCCCCC1` + CCCCNC(=O)OCC#CI [3-iodo-2-propynyl butylcarbamate (IPBC)], the growth was determined as 88.1%.
Consider `CCOC(=O)c1ccccc1NS(=O)(=O)c1ccc(S(=O)(=O)N2CCCC2)cc1` + CCCCNC(=O)OCC#CI [3-iodo-2-propynyl butylcarbamate (IPBC)], for which the growth was 86.2%.
Regarding `COC(=O)C(Nc1nccs1)(OC)C(F)(F)F` (centres undefined) + CCCCNC(=O)OCC#CI [3-iodo-2-propynyl butylcarbamate (IPBC)], the growth amounted to 82.1%.
The result for `CCC(C)(C)C1CCC(NC(=O)c2ccc(N3CCOCC3)nc2)CC1` (centres undefined) + CCCCNC(=O)OCC#CI [3-iodo-2-propynyl butylcarbamate (IPBC)] reads 110%.
For `Cc1cc(C(F)(F)F)n2ncc(-c3cccc(Br)c3)c2n1` + CCCCNC(=O)OCC#CI [3-iodo-2-propynyl butylcarbamate (IPBC)] the value was 84.8%; for `CNC(=O)\C1=C(/NCC2=CC=CO2)C3=CC=CC=C3[S]1(=O)=O` + CCCCNC(=O)OCC#CI [3-iodo-2-propynyl butylcarbamate (IPBC)], 99.9%; for `Cc1cc(C)nc(NS(=O)(=O)c2ccc(NC(=O)c3ccccc3OC(C)C)cc2)n1` + CCCCNC(=O)OCC#CI [3-iodo-2-propynyl butylcarbamate (IPBC)], 99.8%.
For `CC1Cc2ccccc2N1C(=O)COC(=O)c1cc(S(=O)(=O)N(C)C)ccc1Cl` (centres undefined) + CCCCNC(=O)OCC#CI [3-iodo-2-propynyl butylcarbamate (IPBC)] the value was 90.3%.
Turning to `O=C(NCCc1cccs1)c1cc(O)nc2ccccc12` + CCCCNC(=O)OCC#CI [3-iodo-2-propynyl butylcarbamate (IPBC)], the growth was 96.2%.
Regarding `Cc1ccc(-c2ccc(CCC(=O)Nc3ccc(C(N)=O)cc3)o2)cc1C` + CCCCNC(=O)OCC#CI [3-iodo-2-propynyl butylcarbamate (IPBC)], the growth stood at 86.4%.
The result for `Cc1ccc(C)c(C(=O)CSc2nncn2Cc2ccco2)c1` + CCCCNC(=O)OCC#CI [3-iodo-2-propynyl butylcarbamate (IPBC)] reads 103%; that for `CC(O)CN1C(C2=CC=CC=N2)\C(=C(\O)C1=O)C(=O)C3=CC=C(C)C=C3` (centres undefined) + CCCCNC(=O)OCC#CI [3-iodo-2-propynyl butylcarbamate (IPBC)], 96.7%.
Consider `Cc1cc2c(N)c(C(N)=O)sc2nc1-c1ccc(F)cc1` + CCCCNC(=O)OCC#CI [3-iodo-2-propynyl butylcarbamate (IPBC)], for which the growth came to 109%.
For `Cc1ccccc1OCCN1C(=O)C(=O)c2cccc(C)c21` + CCCCNC(=O)OCC#CI [3-iodo-2-propynyl butylcarbamate (IPBC)], the growth was found to be 102%.
For `Cc1cc(NC(=O)CSCC(=O)OCc2ccc(-n3cccn3)cc2)no1` + CCCCNC(=O)OCC#CI [3-iodo-2-propynyl butylcarbamate (IPBC)], the growth amounted to 102%.
On to `CCCCn1c(SCc2ccccn2)nc2cc(S(=O)(=O)N(C)C)ccc21` + CCCCNC(=O)OCC#CI [3-iodo-2-propynyl butylcarbamate (IPBC)], for which the growth was found to be 96.5%.
In the case of `Nc1cc(N)nc(SC(C(=O)N2CCOCC2)c2ccccc2)n1` (centres undefined) + CCCCNC(=O)OCC#CI [3-iodo-2-propynyl butylcarbamate (IPBC)], the growth was 108%.
For `CCn1nnnc1SCc1cn2cc(Cl)ccc2n1` + CCCCNC(=O)OCC#CI [3-iodo-2-propynyl butylcarbamate (IPBC)] the value was 112%; for `CCN(CCN(C)C)C(=O)c1cc2c(s1)-c1ccc(Cl)cc1S(=O)(=O)C2` + CCCCNC(=O)OCC#CI [3-iodo-2-propynyl butylcarbamate (IPBC)], 106%.
As for `O=C\1CC(N\C(=N1)N2CCOCC2)C(=O)NC3=CC=CC=C3` (centres undefined) + CCCCNC(=O)OCC#CI [3-iodo-2-propynyl butylcarbamate (IPBC)], the growth is 96.5%.
For the compound `Cc1ccc(C(=O)Nc2ccc(-c3nccs3)cc2)s1` + CCCCNC(=O)OCC#CI [3-iodo-2-propynyl butylcarbamate (IPBC)], the growth is 91.3%.
On to `Cc1nc(C)c(C(=O)OCc2ccc(C#N)cc2)s1` + CCCCNC(=O)OCC#CI [3-iodo-2-propynyl butylcarbamate (IPBC)], for which the growth worked out at 88.3%.
Consider `CS(=O)(=O)N1CCC(C(=O)Nc2cc(-c3cc(Br)ccc3Cl)[nH]n2)CC1` + CCCCNC(=O)OCC#CI [3-iodo-2-propynyl butylcarbamate (IPBC)], for which the growth was 110%.
Consider `CC1=CC=CC=C1CCNC(=O)CN2\N=C(/OC2=O)C3=CC=CC=C3` + CCCCNC(=O)OCC#CI [3-iodo-2-propynyl butylcarbamate (IPBC)], for which the growth is 98.4%.
As to `COc1cc(NC(=O)c2cccnc2Sc2ccccc2)cc(OC)c1` + CCCCNC(=O)OCC#CI [3-iodo-2-propynyl butylcarbamate (IPBC)], the growth was determined as 99.1%.
For `CCCc1n[nH]c(SCC(=O)NC(C)c2ccc3c(c2)OCCO3)n1` (centres undefined) + CCCCNC(=O)OCC#CI [3-iodo-2-propynyl butylcarbamate (IPBC)], the growth was determined as 101%.
In the case of `COc1cc(NC(=O)c2cc(S(=O)(=O)N3CCCC3)c(Cl)cc2Cl)ccc1OC(F)F` + CCCCNC(=O)OCC#CI [3-iodo-2-propynyl butylcarbamate (IPBC)], the growth came out at 76%.
With `CCC(=O)Nc1nc2ccc(NC(=O)Nc3ccccc3OC)cc2s1` + CCCCNC(=O)OCC#CI [3-iodo-2-propynyl butylcarbamate (IPBC)], the growth amounted to 84.4%.
As for `CC(=O)c1ccc(S(=O)(=O)N(C)CC(=O)Nc2ncccc2C)cc1` + CCCCNC(=O)OCC#CI [3-iodo-2-propynyl butylcarbamate (IPBC)], the growth was found to be 93.5%.
Turning to `CCOc1ccc(CNC(=O)CC(c2ccccc2C)n2cccc2)cc1OC` (centres undefined) + CCCCNC(=O)OCC#CI [3-iodo-2-propynyl butylcarbamate (IPBC)], the growth was 100%.
Consider `CCOC(=O)Nc1ccc(C(=O)Nc2ccc(N3CCOCC3)nc2)cc1` + CCCCNC(=O)OCC#CI [3-iodo-2-propynyl butylcarbamate (IPBC)], for which the growth came to 83.6%.
